Test results taken from the supplement of paper PMC11732987, “Enantioselective OTUD7B fragment discovery through chemoproteomics screening and high-throughput optimisation” (Communications Chemistry, 2025).
The other results are listed elsewhere or left out. The data scatter; read single values as rough.

Sequences of proteins named here, by UniProt entry; tags and fusion partners are left off. A change or cut given only in a name is not applied to a line headed by its entry.
UniProt Q13976: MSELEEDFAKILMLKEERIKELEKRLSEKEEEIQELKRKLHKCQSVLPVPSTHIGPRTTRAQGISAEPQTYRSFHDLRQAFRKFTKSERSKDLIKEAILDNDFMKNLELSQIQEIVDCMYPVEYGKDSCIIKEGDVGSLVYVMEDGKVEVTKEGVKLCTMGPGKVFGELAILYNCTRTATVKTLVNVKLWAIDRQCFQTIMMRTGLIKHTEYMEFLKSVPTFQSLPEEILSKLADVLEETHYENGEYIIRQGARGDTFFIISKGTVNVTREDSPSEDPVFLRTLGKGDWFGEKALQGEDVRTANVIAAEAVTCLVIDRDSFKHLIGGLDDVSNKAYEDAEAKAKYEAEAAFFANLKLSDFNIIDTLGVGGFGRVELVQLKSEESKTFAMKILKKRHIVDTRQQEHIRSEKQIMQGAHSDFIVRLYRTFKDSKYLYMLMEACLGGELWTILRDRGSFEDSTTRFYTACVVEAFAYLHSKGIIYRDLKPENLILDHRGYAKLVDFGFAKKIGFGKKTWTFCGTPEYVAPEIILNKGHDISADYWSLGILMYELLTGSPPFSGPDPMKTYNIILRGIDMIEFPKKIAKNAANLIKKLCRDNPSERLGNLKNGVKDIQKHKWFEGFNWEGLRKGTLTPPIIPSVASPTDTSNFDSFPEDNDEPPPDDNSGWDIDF
UniProt Q9UPN7: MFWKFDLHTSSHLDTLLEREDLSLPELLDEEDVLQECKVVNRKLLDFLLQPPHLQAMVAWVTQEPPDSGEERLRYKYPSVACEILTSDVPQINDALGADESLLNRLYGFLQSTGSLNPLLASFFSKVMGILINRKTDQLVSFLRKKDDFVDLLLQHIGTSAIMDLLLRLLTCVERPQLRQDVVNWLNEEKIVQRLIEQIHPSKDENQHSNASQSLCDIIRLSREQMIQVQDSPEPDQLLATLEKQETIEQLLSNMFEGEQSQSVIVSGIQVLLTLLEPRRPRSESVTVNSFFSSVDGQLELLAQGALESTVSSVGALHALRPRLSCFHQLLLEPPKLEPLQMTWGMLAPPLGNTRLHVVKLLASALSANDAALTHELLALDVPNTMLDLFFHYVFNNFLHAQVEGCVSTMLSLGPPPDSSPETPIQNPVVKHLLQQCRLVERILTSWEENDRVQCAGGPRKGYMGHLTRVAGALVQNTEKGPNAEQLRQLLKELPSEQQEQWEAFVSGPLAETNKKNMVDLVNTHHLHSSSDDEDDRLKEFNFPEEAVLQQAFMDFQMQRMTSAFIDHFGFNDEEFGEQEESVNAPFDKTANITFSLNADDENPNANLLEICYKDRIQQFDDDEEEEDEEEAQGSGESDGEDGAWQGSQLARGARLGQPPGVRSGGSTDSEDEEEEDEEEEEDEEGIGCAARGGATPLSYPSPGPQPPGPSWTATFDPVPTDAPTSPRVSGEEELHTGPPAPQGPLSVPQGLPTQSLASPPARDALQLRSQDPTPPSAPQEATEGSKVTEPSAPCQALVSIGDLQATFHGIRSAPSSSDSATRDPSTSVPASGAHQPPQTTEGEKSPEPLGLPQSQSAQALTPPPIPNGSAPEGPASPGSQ
UniProt O95685: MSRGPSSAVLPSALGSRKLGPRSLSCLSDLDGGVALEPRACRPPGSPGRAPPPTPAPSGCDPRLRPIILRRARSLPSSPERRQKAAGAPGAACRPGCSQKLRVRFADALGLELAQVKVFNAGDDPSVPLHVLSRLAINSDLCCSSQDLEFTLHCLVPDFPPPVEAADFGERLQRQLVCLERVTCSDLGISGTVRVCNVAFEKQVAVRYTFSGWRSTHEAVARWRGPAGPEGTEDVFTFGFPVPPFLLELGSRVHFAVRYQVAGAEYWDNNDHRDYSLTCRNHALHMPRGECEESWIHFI
UniProt P13861, whole entry, looked up: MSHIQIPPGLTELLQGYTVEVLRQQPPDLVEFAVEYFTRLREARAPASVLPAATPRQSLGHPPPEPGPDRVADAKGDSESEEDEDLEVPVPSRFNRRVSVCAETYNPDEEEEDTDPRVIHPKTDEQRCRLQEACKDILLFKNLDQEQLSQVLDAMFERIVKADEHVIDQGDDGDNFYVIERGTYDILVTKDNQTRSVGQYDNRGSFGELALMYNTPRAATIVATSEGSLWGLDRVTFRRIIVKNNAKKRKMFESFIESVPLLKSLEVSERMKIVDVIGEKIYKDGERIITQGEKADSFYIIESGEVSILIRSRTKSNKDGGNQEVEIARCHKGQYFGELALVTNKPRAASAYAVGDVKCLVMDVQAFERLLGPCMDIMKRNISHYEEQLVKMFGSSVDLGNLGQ

Key:
[1] = compound: ClCC(=O)N[C@@H]1CCCc2ccccc12; test: log2 mean competition ratio of IA-DTB cysteine labelling (DMSO/compound) (log2 ratio); higher = stronger cysteine engagement by compound; conditions: treatment time: 4 h, cell line lysate: HEK293T
Description: (§1)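 IA-DTB competitive cysteine chemoproteomics in HEK293T RIPA lysate. Lysates were treated with compound 29 or 30 at 50 or 200 µM for 4 h, then IA-DTB (500 µM, 1 h), trypsin-digested, NeutrAvidin-enriched and analysed by diaPASEF. Competition ratio = intensity DMSO / intensity compound (n=4 treated, n=64 DMSO); binding: mean log2 CR ≥ 1 and p ≤ 0.05 plus QC filters. Target is the cysteine site.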

[2] = compound: ClCC(=O)N[C@H]1CCCc2ccccc12; test: as above; conditions: treatment time: 4 h, cell line lysate: HEK293T
Description: as §1

Target	log2 mean competition ratio ([1]; 50 µM)	log2 mean competition ratio ([1]; 200 µM)	log2 mean competition ratio ([2]; 50 µM)	log2 mean competition ratio ([2]; 200 µM)
PRKG1 C43 (UniProt Q13976)	0.142	-0.0613	-0.401	-0.202
PRKG1 C158 (UniProt Q13976)	-0.301	0.0251	-0.135	-0.058
PPP6R1 C172 (UniProt Q9UPN7)	-0.294	0.108	-0.891	0.123
POLR2B C945 (UniProt P30876)	0.262	-0.00172	0.554	0.175
PPP1R3D C60 (UniProt O95685)	-0.0393	0.0561	-0.0652	0.237
PRKAR2A C374 (UniProt P13861)	0.275	-0.138	-0.0458	0.106
